For this assay, the target named is T1, NBR1-GFP (Arabidopsis thaliana) (UniProt Q9SB64).
T1 sequence: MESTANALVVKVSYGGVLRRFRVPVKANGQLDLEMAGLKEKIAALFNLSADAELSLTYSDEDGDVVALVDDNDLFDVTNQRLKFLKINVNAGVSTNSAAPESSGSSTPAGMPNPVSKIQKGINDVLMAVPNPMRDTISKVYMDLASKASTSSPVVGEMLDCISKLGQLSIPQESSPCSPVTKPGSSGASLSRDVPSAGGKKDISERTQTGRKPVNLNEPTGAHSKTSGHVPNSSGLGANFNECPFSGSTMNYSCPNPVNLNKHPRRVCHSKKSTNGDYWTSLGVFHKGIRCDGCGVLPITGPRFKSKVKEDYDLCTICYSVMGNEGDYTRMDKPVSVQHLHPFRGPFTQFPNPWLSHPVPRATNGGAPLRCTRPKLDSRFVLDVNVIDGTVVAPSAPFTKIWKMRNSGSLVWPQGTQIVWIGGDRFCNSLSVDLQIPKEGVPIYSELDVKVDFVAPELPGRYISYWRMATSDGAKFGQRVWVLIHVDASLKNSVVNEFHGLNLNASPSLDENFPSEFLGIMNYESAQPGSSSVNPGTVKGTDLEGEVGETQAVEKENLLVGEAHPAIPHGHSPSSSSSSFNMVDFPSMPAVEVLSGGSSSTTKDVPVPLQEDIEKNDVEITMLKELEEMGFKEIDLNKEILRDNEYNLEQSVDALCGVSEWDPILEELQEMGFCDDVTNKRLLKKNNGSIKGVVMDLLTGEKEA
Nature of the assay: affinity purification with mass spectrometry; anti-GFP antibody microbeads on total extracts of primed, cross-linked pNBR1:NBR1-GFP and 35S:GFP (control) seedlings, day 1 of the HS recovery phase; 50 mM Tris-HCl pH 7.5, 150 mM NaCl, 1% Tween-20; overnight at 4°C; LC-MS/MS; named hits are those also more abundant in nbr1-2.

Chains of the proteins cited; added tags and fusions are not shown.
UniProt Q38931: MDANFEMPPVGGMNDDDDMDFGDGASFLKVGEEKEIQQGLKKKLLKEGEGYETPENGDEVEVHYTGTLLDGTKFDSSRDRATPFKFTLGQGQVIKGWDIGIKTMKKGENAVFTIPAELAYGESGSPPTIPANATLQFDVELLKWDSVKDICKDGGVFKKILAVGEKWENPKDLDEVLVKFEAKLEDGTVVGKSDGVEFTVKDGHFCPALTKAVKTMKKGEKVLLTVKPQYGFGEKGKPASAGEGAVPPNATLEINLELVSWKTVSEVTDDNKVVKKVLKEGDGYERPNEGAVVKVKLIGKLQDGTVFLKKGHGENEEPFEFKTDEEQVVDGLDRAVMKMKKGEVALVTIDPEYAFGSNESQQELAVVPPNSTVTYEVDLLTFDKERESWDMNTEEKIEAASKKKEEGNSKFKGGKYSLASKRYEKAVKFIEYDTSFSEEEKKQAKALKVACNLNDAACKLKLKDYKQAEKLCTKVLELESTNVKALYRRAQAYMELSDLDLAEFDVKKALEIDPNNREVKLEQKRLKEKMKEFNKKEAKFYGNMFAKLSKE

Results are given in words; binding and its absence hold for the method and conditions named. Binding seen in cells or lysates may run through a third protein. These calls come from enrichment with a bait or labelling near it, and not all partners need be listed. Tags and fused reporters may be left off the sequences shown.

Here are results for nine molecules from publication PMC8496721.

As to “RPS10B (40S RIBOSOMAL PROTEIN) (from UniProt Q9FFS8 1-180)”, the binding result is “binds”.

Turning to “SAM-2 (S-ADENOSYLMETHIONINE … 2) (from UniProt P17562 1-393)”, the binding result is given as “binds”.

Consider RP40 (40S RIBOSOMAL PROTEIN), for which the binding result was “binds”.

Turning to “ROTAMASE 1 (ROF1), endogenous (from UniProt Q38931 1-551)”, the binding entry was “binds”.

B1: UXS3 (UDP-GLUCURONIC ACID DECARBOXYLASE 3) (protein, UniProt Q9FIE8 1-342)
chain: MAATSEKQNTTKPPPSPSPLRNSKFCQPNMRILISGGAGFIGSHLVDKLMENEKNEVVVADNYFTGSKENLKKWIGHPRFELIRHDVTEPLLIEVDRIYHLACPASPIFYKYNPVKTIKTNVIGTLNMLGLAKRVGARILLTSTSEVYGDPLIHPQPESYWGNVNPIGVRSCYDEGKRVAETLMFDYHRQHGIEIRIARIFNTYGPRMNIDDGRVVSNFIAQALRGEALTVQKPGTQTRSFCYVSDMVDGLIRLMEGNDTGPINIGNPGEFTMVELAETVKELINPSIEIKMVENTPDDPRQRKPDISKAKEVLGWEPKVKLREGLPLMEEDFRLRLNVPRN
For B1, the binding result is on record as “binds”.

B2: RPT1A (REGULATORY PARTICLE TRIPLE-A 1A) (protein, UniProt Q9SSB5 1-426)
chain: MVRDIEDEIRDEKNPRPLDEDDIALLKTYGLGPYSAPIKKVEKEIKDLAKKINDLCGIKESDTGLAPPSQWDLVSDKQMMQEEQPLQVARCTKIISPNTEDAKYVINVKQIAKFVVGLGDKVSPTDIEEGMRVGVDRNKYQIQIPLPPKIDPSVTMMTVEEKPDVTYNDVGGCKEQIEKMREVVELPMLHPEKFVKLGIDPPKGVLCYGPPGTGKTLLARAVANRTDACFIRVIGSELVQKYVGEGARMVRELFQMARSKKACIVFFDEVDAIGGARFDDGVGGDNEVQRTMLEIVNQLDGFDARGNIKVLMATNRPDTLDPALLRPGRLDRKVEFGLPDLESRTQIFKIHTRTMNCERDIRFELLARLCPNSTGADIRSVCTEAGMYAIRARRKTVTEKDFLDAVNKVIKGYQKFSATPKYMVYN
As to B2, the binding entry was “binds”.

B3: RSR4 (ARABIDOPSIS THALIANA PYRIDOXINE BIO… 1.3) (protein, UniProt Q8L940 1-309)
chain: MEGTGVVAVYGNGAITEAKKSPFSVKVGLAQMLRGGVIMDVVNAEQARIAEEAGACAVMALERVPADIRAQGGVARMSDPQMIKEIKQAVTIPVMAKARIGHFVEAQILEAIGIDYIDESEVLTLADEDHHINKHNFRIPFVCGCRNLGEALRRIREGAAMIRTKGEAGTGNIIEAVRHVRSVNGDIRVLRNMDDDEVFTFAKKLAAPYDLVMQTKQLGRLPVVQFAAGGVATPADAALMMQLGCDGVFVGSGIFKSGDPARRARAIVQAVTHYSDPEMLVEVSCGLGEAMVGINLNDEKVERFANRSE
Take B3: the binding entry was “binds”.

B4: CA2 (BETA CARBONIC … 2) (protein, UniProt P42737 72-331)
chain: RMGNESYEDAIEALKKLLIEKDDLKDVAAAKVKKITAELQAASSSDSKSFDPVERIKEGFVTFKKEKYETNPALYGELAKGQSPKYMVFACSDSRVCPSHVLDFHPGDAFVVRNIANMVPPFDKVKYAGVGAAIEYAVLHLKVENIVVIGHSACGGIKGLMSFPLDGNNSTDFIEDWVKICLPAKSKVLAESESSAFEDQCGRCEREAVNVSLANLLTYPFVREGVVKGTLALKGGYYDFVNGSFELWELQFGISPVHSI
For the molecule B4, the binding entry is recorded as “binds”.

B5: GLN1-1 (ARABIDOPSIS GLUTAMINE SYNTHASE 1) (protein, UniProt Q56WN1 1-356)
chain: MSLVSDLINLNLSDSTDKIIAEYIWVGGSGMDMRSKARTLPGPVTDPSQLPKWNYDGSSTGQAPGEDSEVILYPQAIFKDPFRRGNNILVMCDAYTPAGEPIPTNKRHAAAKVFSNPDVAAEVPWYGIEQEYTLLQKDVKWPVGWPIGGYPGPQGPYYCGIGADKSFGRDVVDSHYKACLYAGINISGINGEVMPGQWEFQVGPAVGISAADEIWVARYILERITEIAGVVVSFDPKPIPGDWNGAGAHCNYSTKSMREEGGYEIIKKAIDKLGLRHKEHIAAYGEGNERRLTGHHETADINTFLWGVANRGASIRVGRDTEKEGKGYFEDRRPASNMDPYIVTSMIAETTILWNP
On to B5, for which the binding entry is recorded as “binds”.
